This note sets out measurements from PMC6195628.

Protein sequences, listed by entry. Tags and fused reporters are not part of them. Lines headed by an entry give the natural chain unless they say otherwise; changes in a name come on top. Chains listed by the source or under a name are the forms on record and can include a tag or linker. Residues count along the entry.
3xFLAG tagged murine Notch1 intracellular domain (N1ICD) (Q01705, residues 1744-2531): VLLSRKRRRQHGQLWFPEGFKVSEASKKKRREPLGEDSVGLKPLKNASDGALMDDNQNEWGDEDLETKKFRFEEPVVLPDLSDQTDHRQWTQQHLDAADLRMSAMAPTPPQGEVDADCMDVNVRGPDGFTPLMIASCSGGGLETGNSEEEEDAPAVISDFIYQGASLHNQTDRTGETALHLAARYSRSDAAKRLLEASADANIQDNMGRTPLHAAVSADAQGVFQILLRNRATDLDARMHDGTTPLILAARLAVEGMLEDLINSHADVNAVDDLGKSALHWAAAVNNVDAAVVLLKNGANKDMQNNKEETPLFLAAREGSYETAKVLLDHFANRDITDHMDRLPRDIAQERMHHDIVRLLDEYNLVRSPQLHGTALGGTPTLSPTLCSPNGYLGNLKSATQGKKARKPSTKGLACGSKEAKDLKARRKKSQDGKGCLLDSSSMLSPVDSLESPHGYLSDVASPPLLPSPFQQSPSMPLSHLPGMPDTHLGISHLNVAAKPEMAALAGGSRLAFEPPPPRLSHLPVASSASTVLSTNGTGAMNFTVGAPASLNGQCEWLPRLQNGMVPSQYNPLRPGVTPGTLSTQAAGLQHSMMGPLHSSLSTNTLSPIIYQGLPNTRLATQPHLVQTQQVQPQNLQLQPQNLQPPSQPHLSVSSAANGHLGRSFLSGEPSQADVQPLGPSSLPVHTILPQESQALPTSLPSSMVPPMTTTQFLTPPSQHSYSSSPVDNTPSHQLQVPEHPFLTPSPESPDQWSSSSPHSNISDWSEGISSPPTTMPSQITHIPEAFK
3xFLAG N1ICD Quad mutant (Y1938F, Y2074F, Y2116F, Y2145F) (Q01705, form named): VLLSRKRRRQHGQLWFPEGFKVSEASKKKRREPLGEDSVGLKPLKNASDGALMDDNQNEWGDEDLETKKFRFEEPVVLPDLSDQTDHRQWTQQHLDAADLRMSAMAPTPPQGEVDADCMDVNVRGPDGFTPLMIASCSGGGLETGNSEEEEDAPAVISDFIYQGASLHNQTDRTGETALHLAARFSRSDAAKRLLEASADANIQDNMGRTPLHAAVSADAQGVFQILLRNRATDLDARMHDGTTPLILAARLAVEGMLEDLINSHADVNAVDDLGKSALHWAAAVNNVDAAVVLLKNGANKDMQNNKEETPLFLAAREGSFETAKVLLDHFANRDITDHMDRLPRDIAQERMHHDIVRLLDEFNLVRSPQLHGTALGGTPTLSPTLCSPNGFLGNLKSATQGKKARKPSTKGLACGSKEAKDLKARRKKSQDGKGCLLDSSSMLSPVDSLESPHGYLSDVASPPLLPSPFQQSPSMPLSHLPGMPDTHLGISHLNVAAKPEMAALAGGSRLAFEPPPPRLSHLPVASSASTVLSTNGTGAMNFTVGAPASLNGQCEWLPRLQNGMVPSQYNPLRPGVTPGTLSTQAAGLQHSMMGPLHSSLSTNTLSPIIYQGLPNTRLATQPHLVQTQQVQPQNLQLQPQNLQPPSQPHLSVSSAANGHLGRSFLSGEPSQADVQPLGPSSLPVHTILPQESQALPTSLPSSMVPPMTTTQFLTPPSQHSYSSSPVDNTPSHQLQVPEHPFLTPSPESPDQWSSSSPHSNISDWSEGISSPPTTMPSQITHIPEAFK
UniProt Q92585: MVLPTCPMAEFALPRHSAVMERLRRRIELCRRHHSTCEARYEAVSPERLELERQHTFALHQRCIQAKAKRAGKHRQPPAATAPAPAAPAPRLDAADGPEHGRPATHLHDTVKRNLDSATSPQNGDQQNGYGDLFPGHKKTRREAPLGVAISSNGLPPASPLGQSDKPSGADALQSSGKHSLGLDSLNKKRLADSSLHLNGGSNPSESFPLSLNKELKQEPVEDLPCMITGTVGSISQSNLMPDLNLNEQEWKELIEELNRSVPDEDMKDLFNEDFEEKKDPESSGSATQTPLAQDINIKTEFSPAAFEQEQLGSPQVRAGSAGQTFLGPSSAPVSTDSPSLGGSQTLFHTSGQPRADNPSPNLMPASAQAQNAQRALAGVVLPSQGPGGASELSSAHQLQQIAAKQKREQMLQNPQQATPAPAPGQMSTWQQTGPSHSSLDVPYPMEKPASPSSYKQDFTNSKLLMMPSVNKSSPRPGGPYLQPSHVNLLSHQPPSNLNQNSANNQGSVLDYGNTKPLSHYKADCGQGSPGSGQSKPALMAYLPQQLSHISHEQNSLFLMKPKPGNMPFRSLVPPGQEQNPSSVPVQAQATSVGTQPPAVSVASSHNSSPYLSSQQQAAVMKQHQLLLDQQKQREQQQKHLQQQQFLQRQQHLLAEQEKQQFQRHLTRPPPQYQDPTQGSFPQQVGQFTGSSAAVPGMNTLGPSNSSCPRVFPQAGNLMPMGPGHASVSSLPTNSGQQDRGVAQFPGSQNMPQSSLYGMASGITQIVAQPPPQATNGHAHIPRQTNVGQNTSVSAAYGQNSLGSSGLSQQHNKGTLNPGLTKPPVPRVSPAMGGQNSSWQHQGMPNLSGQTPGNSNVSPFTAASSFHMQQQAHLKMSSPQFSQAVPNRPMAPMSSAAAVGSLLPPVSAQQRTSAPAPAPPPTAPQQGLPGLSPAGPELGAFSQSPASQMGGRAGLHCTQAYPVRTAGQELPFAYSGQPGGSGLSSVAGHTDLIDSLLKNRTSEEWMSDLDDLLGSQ

Results are given in words; binding and its absence hold for the method and conditions named. Binding seen in cells or lysates may run through a third protein. Some results given as binding are weak or reduced against the parent protein; the word gives no strength.

Test [1] concerns the target 3xFLAG N1ICD Quad mutant (Y1938F, Y2074F, Y2116F, Y2145F) (murine) (UniProt Q01705). Put plainly: co-IP; anti-FLAG affinity resin on lysates of transfected 293 T cells, overnight at 4 °C; 200 mM KCl, 25 mM Hepes, 1% NP-40, pH 7.5; blots with anti-Src or anti-MAML1; with or without overexpressed c-Src, β3 integrin or MAGP2, or SFK inhibitor AZM475271.
For test [2], the target named is 3xFLAG tagged murine Notch1 intracellular domain (N1ICD) (murine) (UniProt Q01705). Described as above.

For the substance “human MAML1 with a myc tag (from UniProt Q92585 1-1016)”, the binding entry in test [1] and in test [2] was “binds” throughout.
